The other results are listed elsewhere or left out.
These targets were tested with Cc1ccc(-n2nc(C(C)(C)C)cc2NC(=O)Nc2ccc(OCCN3CCOCC3)c3ccccc23)cc1 [doramapimod] (assay: log2 fold change, soluble protein after heating vs DMSO (PISA); higher = thermal stabilisation; K562 lysate, 10 uM; active = over 0.2 and 3.5 SD of the protein, either way, in both replicates (recomputed)).
Outline: (§1)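 Dounce homogenisation of K562 pellets in PBS pH 7.4 with 1 mM MgCl2 produced a crude extract, used at 1 mg/mL protein. Exposure to 10 μM compound lasted 30 min, and aliquots were then heated for 3 min across 48°C-58°C, pooled and brought to 0.5% NP-40 at 4°C. The supernatant after 21,000xg for 90 min was quantified by TMTpro 16plex LC-MS/MS with channel sums equalised. Duplicate values are given as log-two fold change in thermal stability relative to solvent controls.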

Protein sequences, listed by entry. Tags and fused reporters are not part of them. Lines headed by an entry give the natural chain unless they say otherwise; changes in a name come on top.
UniProt Q14980: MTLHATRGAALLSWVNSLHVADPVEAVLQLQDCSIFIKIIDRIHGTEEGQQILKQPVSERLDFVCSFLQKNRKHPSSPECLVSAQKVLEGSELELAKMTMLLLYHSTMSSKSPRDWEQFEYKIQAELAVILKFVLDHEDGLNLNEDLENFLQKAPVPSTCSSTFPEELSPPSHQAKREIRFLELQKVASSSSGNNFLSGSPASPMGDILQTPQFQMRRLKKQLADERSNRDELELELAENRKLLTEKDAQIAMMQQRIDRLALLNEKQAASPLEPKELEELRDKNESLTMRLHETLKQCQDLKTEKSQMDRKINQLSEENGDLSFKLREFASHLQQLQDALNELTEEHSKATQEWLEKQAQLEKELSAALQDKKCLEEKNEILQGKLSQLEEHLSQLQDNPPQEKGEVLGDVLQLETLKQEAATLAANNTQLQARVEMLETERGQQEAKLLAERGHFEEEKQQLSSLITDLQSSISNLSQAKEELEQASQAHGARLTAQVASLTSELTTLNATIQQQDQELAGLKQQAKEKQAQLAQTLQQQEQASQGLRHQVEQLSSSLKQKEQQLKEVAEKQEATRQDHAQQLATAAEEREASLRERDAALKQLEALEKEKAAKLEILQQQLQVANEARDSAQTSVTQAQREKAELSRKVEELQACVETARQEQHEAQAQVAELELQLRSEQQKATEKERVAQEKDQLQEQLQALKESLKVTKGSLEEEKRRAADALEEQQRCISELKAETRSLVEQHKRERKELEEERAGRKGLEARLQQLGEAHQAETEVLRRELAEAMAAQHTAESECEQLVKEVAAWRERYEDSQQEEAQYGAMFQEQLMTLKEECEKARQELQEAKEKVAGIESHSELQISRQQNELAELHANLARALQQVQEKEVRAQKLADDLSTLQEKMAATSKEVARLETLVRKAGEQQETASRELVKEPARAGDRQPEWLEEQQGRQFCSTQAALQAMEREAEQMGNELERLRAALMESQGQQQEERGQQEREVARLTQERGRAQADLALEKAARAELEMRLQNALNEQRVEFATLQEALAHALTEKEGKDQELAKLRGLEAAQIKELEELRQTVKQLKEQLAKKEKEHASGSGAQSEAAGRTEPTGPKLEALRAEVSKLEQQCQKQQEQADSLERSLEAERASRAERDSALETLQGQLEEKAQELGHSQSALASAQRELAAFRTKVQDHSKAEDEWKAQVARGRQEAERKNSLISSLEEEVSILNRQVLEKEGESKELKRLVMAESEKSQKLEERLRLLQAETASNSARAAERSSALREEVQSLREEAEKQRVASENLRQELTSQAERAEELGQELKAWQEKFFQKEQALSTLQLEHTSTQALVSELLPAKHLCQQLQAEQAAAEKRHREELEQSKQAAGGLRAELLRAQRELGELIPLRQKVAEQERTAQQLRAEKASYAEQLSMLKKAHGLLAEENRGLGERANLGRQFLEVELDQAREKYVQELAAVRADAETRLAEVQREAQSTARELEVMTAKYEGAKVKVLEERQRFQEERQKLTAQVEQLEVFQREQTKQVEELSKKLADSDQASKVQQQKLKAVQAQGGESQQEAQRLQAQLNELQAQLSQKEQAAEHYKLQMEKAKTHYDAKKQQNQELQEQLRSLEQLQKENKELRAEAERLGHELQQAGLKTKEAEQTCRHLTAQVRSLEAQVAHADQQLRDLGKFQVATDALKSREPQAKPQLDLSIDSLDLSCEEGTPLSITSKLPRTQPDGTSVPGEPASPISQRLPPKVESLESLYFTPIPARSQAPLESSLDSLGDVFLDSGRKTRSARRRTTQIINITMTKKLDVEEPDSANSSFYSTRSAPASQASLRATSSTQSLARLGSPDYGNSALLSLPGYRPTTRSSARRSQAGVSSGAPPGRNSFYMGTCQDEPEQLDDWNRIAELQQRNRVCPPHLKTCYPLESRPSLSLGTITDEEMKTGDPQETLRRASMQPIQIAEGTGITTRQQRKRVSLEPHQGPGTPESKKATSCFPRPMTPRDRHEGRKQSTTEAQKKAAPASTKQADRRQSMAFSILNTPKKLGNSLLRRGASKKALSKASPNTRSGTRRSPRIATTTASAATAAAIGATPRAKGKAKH
UniProt P22392, whole entry, looked up: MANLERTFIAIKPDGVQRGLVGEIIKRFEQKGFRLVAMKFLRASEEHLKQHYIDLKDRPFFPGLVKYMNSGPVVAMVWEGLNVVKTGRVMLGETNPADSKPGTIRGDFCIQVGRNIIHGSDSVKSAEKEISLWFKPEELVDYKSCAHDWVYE
UniProt Q9NV35: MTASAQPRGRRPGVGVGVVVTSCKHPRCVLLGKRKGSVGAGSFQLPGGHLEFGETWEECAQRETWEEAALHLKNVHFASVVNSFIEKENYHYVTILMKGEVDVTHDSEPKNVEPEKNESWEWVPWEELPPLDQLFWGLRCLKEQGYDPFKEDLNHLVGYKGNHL
UniProt Q8TCD5: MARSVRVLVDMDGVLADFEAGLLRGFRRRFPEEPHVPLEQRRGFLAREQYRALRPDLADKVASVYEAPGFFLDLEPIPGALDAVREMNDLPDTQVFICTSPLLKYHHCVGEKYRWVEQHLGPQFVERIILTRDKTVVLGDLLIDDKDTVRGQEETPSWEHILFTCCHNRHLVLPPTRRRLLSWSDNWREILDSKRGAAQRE
UniProt Q15738: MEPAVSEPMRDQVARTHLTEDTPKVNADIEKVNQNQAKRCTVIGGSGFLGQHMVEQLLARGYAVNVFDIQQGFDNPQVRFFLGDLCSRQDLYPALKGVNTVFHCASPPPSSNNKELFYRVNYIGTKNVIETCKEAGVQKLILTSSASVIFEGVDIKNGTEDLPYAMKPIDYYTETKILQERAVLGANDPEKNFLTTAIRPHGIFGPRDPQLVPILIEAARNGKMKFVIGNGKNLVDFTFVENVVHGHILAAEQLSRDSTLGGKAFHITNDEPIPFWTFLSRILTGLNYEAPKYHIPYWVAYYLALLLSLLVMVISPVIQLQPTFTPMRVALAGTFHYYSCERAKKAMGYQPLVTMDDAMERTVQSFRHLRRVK
UniProt Q08J23, whole entry, looked up: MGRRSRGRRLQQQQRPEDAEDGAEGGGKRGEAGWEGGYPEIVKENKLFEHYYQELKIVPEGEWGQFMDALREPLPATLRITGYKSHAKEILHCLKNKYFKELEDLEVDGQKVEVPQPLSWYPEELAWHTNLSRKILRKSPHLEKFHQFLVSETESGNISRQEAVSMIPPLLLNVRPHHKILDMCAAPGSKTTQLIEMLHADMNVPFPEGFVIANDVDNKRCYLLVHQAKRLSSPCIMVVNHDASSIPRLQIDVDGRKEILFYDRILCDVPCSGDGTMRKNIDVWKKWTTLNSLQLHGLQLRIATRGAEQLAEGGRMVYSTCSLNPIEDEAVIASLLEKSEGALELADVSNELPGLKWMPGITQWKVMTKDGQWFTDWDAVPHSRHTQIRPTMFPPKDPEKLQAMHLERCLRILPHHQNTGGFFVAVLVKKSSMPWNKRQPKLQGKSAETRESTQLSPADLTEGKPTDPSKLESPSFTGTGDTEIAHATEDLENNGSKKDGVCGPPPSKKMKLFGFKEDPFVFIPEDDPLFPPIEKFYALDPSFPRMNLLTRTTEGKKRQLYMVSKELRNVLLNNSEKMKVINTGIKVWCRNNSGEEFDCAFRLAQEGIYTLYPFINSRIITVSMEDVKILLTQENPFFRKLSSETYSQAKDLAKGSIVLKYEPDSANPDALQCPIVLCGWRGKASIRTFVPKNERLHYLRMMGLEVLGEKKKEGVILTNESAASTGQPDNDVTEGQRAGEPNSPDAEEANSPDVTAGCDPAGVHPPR
UniProt Q5TFE4: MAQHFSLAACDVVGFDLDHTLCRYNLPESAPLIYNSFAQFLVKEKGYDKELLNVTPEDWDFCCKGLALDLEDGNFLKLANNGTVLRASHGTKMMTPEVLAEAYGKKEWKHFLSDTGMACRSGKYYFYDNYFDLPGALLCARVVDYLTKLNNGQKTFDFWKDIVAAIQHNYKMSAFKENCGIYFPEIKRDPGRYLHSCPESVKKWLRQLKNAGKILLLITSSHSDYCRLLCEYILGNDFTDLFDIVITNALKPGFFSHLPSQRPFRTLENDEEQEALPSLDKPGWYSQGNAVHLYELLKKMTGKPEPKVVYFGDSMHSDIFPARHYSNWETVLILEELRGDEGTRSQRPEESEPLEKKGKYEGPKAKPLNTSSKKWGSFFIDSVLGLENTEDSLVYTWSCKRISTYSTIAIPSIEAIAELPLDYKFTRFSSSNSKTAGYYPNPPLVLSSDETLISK
UniProt Q9NSY0: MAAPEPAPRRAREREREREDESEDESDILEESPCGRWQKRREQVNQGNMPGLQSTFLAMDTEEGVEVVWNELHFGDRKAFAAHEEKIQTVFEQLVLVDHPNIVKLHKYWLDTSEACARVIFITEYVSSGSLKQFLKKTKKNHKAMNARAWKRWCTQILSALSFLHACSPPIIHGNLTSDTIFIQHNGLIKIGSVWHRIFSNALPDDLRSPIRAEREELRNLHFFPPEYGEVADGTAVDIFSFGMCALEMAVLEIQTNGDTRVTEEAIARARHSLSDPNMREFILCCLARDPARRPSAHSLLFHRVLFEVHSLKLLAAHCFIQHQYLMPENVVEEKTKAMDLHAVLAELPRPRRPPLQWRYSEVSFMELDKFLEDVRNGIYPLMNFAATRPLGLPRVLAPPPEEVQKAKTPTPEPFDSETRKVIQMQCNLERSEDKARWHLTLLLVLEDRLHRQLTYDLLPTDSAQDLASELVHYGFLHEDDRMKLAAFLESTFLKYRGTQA
UniProt Q9H857: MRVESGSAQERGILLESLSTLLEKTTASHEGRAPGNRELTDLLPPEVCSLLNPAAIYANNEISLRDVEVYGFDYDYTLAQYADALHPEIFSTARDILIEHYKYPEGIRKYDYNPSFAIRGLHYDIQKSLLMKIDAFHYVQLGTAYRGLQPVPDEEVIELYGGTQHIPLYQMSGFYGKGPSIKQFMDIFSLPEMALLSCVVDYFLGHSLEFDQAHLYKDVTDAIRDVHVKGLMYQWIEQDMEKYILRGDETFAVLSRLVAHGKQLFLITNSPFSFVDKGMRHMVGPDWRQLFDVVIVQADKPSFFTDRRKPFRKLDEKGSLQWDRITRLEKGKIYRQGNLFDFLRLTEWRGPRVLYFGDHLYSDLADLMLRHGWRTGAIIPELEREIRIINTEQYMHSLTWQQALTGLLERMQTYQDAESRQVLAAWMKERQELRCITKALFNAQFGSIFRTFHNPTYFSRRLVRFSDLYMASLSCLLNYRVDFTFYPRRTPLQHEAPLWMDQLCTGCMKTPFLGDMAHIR
UniProt P49902: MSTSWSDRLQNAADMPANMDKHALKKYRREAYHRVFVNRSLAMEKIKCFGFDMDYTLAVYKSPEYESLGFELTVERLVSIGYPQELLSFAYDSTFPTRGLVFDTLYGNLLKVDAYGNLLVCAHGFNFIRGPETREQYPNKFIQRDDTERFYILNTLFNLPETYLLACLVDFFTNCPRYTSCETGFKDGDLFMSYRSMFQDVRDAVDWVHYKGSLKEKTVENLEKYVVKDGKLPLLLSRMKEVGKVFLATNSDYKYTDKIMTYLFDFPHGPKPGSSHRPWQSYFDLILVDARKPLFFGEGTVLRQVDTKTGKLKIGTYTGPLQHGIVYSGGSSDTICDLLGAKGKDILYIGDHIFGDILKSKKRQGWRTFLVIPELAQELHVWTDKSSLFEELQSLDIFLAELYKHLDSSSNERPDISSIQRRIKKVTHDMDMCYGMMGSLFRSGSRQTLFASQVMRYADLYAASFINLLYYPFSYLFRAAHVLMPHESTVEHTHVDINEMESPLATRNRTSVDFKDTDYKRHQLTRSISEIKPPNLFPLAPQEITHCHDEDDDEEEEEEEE
UniProt Q96IY1: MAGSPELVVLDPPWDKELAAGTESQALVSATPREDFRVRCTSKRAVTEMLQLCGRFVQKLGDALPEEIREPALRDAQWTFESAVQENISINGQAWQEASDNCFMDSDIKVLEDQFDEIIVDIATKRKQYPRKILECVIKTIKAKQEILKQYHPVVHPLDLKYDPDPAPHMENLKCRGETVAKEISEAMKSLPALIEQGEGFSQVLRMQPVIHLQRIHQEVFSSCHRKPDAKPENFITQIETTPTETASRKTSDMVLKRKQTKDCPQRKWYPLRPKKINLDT
UniProt Q96P11: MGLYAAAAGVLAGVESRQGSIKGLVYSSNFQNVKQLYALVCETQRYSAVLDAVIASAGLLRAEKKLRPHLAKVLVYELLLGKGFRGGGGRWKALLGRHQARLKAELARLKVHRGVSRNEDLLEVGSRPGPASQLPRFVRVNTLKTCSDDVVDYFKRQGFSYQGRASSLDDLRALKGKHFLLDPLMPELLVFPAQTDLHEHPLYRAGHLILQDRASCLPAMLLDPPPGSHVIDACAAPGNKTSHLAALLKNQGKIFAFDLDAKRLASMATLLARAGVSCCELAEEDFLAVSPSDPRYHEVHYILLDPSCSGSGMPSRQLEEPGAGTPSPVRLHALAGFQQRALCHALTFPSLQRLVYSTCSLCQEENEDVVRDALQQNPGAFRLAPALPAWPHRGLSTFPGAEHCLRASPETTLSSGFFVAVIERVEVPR

Target	log2 fold change
NUMA1 (UniProt Q14980)	inactive: 0.029
NME2 isoform 2 (UniProt P22392)	inactive: 0.011
NUDT15 (UniProt Q9NV35)	inactive: 0.014
NT5C (UniProt Q8TCD5)	inactive: 0.002
NSDHL (UniProt Q15738)	inactive: 0.137
NSUN2 (UniProt Q08J23)	inactive: -0.009
NT5DC1 (UniProt Q5TFE4)	inactive: 0
NRBP2 (UniProt Q9NSY0)	inactive: 0.054
NT5DC2 isoform 2 (UniProt Q9H857)	inactive: -0.029

The targets below were run with Cc1ccc(NC(=O)c2ccc(CN3CC[C@H](N(C)C)C3)c(C(F)(F)F)c2)cc1Nc1nccc(-c2cncnc2)n1 [bafetinib] in the same assay as above.
Outline: as §1

Target	log2 fold change
NUDT5 (UniProt Q9UKK9)	inactive: -0.016
NOL12 (UniProt Q9UGY1)	inactive: 0.05
NUBP1 (UniProt P53384)	inactive: 0.017
NUMBL (UniProt Q9Y6R0)	inactive: 0.041
NUDT12 (UniProt Q9BQG2)	inactive: 0.008
NMNAT1 (UniProt Q9HAN9)	inactive: 0.011
NT5C2 (UniProt P49902)	inactive: -0.026
NSRP1 (UniProt Q9H0G5)	inactive: -0.035
NUDT4 isoform 2 (UniProt Q9NZJ9)	inactive: -0.006
NSL1 (UniProt Q96IY1)	inactive: 0.034
NSFL1C isoform 5 (UniProt Q9UNZ2)	inactive: 0.024
NSUN5 isoform 2 (UniProt Q96P11)	inactive: 0
NRAS (UniProt P01111)	inactive: 0.009
NOC3L (UniProt Q8WTT2)	inactive: -0.048
NMD3 (UniProt Q96D46)	inactive: -0.002
NSMCE4A (UniProt Q9NXX6)	inactive: 0.016

Target	log2 fold change
NUDCD1 (UniProt Q96RS6)	inactive: -0.037
NOMO2 (UniProt Q5JPE7)	inactive: -0.027
NOA1 (UniProt Q8NC60)	inactive: -0.221
NOP53 (UniProt Q9NZM5)	inactive: 0.03
NOSIP (UniProt Q9Y314)	inactive: -0.003
NUDCD2 (UniProt Q8WVJ2)	inactive: 0.081
NSF (UniProt P46459)	inactive: -0.019
NUMA1 (UniProt Q14980)	inactive: -0.03
NME2 isoform 2 (UniProt P22392)	inactive: 0.027
NUDT15 (UniProt Q9NV35)	inactive: -0.041
NT5C (UniProt Q8TCD5)	inactive: 0.069
NSDHL (UniProt Q15738)	inactive: 0.011
NSUN2 (UniProt Q08J23)	inactive: -0.038
NT5DC1 (UniProt Q5TFE4)	inactive: 0.027
NRBP2 (UniProt Q9NSY0)	inactive: -0.166
NT5DC2 isoform 2 (UniProt Q9H857)	inactive: -0.027

These targets were tested with Cc1cccc(CC(=O)N2CCc3c2ccc(-c2cn(C)c4ncnc(N)c24)c3F)n1 in the same assay as above.
Outline: as §1

Target	log2 fold change
NUDT5 (UniProt Q9UKK9)	inactive: 0.212
NOL12 (UniProt Q9UGY1)	inactive: -0.031
NUBP1 (UniProt P53384)	inactive: -0.015
NUMBL (UniProt Q9Y6R0)	inactive: 0.036
NUDT12 (UniProt Q9BQG2)	inactive: -0.047
NMNAT1 (UniProt Q9HAN9)	inactive: 0.01
NT5C2 (UniProt P49902)	inactive: -0.016
NSRP1 (UniProt Q9H0G5)	inactive: -0.079
NUDT4 isoform 2 (UniProt Q9NZJ9)	inactive: 0.011
NSL1 (UniProt Q96IY1)	inactive: 0.006
NSFL1C isoform 5 (UniProt Q9UNZ2)	inactive: -0.022
NSUN5 isoform 2 (UniProt Q96P11)	inactive: 0.021
NRAS (UniProt P01111)	inactive: 0.005
NOC3L (UniProt Q8WTT2)	inactive: 0.047
NMD3 (UniProt Q96D46)	inactive: 0.028
NSMCE4A (UniProt Q9NXX6)	inactive: 0.045

Target	log2 fold change
NUDCD1 (UniProt Q96RS6)	inactive: 0.028
NOMO2 (UniProt Q5JPE7)	inactive: 0.044
NOA1 (UniProt Q8NC60)	inactive: 0.167
NOP53 (UniProt Q9NZM5)	inactive: -0.121
NOSIP (UniProt Q9Y314)	inactive: 0.038
NUDCD2 (UniProt Q8WVJ2)	inactive: -0.036
NSF (UniProt P46459)	inactive: -0.009
NUMA1 (UniProt Q14980)	inactive: 0.031
NME2 isoform 2 (UniProt P22392)	inactive: 0.014
NUDT15 (UniProt Q9NV35)	inactive: 0.05
NT5C (UniProt Q8TCD5)	inactive: -0.059
NSDHL (UniProt Q15738)	inactive: -0.006
NSUN2 (UniProt Q08J23)	inactive: -0.007
NT5DC1 (UniProt Q5TFE4)	inactive: -0.028
NRBP2 (UniProt Q9NSY0)	inactive: 0.018
NT5DC2 isoform 2 (UniProt Q9H857)	inactive: -0.027

Source: the supplement of paper PMC10849652
